The other results are listed elsewhere or left out. Potency and affinity values are given separately. Where no call is shown, the source marks the result inconclusive.
Assay: PubChem AID 2442
Conditions: H4 cells, SNCA 5'UTR luciferase translation, luminescence; at 6 µM (top of the series)

SMILES: CC(=O)O[C@@]12CO[C@@H]1C[C@H](O)[C@@]1(C)C(=O)[C@H](O)C3=C(C)[C@@H](OC(=O)[C@H](O)[C@@H](NC(=O)c4ccccc4)c4ccccc4)C[C@](O)([C@@H](OC(=O)c4ccccc4)[C@H]21)C3(C)C
- activation: -14%
